# Measured values from the supplement of paper PMC12067093, “Discovery and optimisation of a covalent ligand for TRIM25 and its application to targeted protein ubiquitination” (Chemical Science, 2025).
# Sequences of proteins named here, by UniProt entry; tags and fusion partners are left off. A change or cut given only in a name is not applied to a line headed by its entry.
# UniProt P31930: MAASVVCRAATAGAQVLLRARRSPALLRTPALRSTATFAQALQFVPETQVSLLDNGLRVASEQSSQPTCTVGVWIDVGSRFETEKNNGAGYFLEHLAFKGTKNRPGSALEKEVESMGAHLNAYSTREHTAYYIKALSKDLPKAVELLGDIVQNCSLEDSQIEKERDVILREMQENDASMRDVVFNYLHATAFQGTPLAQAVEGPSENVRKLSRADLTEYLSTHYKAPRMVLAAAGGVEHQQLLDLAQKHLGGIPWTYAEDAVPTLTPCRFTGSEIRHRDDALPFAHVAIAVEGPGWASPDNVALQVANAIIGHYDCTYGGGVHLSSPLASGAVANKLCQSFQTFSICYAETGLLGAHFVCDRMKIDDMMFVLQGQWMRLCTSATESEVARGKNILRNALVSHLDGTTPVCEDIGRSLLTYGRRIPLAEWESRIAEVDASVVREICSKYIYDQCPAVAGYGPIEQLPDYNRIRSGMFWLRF
# UniProt Q96T88: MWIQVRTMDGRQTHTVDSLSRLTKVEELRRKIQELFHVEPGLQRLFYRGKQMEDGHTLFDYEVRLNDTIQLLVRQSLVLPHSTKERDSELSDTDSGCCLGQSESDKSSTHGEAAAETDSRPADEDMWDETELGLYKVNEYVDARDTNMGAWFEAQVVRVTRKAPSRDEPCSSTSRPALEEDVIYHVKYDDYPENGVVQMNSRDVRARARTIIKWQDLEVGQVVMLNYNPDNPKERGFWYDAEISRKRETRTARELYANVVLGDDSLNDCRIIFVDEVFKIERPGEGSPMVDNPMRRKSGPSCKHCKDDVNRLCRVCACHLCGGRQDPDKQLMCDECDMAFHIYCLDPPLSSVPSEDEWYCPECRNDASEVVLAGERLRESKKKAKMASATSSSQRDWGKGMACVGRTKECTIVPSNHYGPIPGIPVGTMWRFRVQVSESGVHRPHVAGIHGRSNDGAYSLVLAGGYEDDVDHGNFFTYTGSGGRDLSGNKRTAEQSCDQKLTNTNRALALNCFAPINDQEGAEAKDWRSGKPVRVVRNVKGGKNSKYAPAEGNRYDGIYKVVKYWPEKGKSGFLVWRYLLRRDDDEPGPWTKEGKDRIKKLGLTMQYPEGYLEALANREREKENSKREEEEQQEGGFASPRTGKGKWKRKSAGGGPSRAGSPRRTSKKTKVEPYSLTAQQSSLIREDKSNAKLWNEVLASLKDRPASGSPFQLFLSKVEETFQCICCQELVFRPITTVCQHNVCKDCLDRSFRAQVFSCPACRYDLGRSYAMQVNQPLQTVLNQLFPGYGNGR
# UniProt P10746: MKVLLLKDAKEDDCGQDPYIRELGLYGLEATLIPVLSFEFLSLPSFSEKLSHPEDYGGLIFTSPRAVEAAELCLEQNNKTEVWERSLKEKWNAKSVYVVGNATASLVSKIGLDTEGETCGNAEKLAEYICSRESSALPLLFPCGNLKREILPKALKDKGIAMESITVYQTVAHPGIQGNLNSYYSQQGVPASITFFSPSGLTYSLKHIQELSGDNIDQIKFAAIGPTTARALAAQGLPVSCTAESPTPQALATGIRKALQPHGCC
# UniProt Q70CQ2: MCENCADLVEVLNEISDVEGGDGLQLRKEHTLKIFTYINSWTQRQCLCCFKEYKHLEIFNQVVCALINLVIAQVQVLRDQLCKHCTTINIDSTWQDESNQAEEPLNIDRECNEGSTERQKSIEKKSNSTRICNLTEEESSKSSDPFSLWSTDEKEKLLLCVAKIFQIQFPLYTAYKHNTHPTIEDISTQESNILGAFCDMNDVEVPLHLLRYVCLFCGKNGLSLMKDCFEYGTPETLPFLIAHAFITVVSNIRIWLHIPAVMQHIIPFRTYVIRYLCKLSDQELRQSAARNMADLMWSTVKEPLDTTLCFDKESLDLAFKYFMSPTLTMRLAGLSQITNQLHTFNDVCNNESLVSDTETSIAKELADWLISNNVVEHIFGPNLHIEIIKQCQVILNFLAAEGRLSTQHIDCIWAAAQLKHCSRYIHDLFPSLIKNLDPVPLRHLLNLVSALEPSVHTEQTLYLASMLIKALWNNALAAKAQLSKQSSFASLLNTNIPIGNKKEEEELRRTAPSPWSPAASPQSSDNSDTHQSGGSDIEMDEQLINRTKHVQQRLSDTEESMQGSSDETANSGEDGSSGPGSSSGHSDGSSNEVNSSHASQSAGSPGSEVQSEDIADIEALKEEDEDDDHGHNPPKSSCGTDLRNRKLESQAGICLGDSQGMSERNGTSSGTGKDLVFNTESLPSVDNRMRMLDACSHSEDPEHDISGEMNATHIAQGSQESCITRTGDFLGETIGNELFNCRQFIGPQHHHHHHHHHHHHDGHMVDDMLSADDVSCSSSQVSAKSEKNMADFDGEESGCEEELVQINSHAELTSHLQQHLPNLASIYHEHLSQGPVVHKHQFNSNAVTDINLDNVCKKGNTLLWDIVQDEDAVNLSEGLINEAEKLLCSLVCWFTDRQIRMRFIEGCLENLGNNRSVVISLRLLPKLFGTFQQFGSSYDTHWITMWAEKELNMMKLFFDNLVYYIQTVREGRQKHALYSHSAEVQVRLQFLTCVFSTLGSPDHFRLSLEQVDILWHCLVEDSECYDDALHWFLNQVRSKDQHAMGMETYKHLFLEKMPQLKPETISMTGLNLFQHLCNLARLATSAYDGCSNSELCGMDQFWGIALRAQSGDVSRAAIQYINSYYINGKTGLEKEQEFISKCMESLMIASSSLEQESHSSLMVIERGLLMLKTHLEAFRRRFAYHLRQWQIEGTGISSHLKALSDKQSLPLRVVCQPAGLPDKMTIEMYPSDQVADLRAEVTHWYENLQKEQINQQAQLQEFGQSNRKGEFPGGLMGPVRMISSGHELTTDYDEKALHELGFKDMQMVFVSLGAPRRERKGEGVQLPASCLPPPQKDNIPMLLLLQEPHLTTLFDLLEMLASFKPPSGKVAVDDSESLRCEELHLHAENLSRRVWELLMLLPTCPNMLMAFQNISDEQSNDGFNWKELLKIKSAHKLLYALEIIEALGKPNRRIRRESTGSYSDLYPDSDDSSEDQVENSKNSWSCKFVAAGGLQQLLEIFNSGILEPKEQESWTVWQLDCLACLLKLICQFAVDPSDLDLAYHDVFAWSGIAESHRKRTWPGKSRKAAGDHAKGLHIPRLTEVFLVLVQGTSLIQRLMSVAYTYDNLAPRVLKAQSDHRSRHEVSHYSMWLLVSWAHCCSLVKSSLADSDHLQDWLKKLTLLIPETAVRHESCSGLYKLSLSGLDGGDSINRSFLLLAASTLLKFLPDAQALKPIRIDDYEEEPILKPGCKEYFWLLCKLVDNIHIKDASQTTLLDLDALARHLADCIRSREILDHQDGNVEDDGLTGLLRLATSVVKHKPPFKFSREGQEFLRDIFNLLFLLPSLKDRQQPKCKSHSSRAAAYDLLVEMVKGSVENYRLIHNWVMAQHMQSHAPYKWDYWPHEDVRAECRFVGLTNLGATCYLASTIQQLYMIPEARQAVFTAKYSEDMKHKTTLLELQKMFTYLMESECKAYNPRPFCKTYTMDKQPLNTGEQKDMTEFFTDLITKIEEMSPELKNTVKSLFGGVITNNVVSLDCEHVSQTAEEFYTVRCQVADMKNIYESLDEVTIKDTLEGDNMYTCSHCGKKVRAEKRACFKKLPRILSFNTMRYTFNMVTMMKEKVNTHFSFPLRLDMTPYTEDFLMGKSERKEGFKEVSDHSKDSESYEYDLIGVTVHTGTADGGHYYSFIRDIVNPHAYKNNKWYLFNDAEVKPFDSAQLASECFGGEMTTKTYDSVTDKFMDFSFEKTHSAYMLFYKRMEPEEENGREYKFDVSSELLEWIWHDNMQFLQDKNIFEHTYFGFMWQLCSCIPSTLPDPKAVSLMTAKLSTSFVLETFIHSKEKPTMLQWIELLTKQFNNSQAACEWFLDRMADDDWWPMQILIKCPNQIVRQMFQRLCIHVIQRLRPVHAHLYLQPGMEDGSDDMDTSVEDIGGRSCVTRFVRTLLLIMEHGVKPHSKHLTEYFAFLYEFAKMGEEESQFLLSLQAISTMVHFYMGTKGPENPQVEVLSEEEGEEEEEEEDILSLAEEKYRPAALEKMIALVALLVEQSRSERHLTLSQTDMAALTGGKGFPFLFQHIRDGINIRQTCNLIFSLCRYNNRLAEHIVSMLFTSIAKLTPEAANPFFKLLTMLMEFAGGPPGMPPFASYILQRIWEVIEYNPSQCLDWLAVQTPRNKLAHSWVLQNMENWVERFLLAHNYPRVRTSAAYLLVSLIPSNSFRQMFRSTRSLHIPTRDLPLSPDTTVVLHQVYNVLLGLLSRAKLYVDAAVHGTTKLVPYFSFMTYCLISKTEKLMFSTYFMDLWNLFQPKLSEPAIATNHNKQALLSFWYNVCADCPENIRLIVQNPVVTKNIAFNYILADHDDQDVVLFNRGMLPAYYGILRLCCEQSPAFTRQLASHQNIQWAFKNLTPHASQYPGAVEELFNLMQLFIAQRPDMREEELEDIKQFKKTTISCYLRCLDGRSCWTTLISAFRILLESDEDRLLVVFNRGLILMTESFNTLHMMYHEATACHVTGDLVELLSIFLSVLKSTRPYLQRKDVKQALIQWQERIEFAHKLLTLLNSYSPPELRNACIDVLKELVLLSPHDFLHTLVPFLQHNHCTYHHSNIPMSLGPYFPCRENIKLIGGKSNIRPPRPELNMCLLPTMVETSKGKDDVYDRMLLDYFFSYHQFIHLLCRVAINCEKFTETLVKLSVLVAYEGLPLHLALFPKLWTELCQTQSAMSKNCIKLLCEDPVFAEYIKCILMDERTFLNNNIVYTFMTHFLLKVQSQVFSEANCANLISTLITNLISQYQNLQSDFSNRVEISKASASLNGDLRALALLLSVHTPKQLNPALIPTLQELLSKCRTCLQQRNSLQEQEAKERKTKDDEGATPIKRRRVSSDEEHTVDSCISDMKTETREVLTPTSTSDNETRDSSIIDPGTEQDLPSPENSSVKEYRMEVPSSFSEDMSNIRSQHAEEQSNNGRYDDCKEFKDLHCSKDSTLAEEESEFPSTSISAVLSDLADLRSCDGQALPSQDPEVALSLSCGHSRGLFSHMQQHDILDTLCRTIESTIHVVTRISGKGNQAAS
# UniProt P07919: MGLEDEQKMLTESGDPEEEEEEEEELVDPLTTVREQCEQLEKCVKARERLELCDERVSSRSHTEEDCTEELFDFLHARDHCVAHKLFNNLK
# UniProt P11172: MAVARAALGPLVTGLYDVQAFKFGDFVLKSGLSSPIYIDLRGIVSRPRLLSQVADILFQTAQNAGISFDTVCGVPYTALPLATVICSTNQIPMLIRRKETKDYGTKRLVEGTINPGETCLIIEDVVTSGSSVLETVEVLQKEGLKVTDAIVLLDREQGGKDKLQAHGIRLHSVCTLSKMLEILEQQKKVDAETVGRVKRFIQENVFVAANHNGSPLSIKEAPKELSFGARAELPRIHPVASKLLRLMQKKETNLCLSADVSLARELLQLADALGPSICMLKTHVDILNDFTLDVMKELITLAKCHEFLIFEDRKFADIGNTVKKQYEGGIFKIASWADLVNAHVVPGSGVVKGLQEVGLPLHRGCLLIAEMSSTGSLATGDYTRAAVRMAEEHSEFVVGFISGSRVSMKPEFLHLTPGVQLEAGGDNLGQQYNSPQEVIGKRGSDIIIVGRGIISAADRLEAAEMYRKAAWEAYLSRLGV
# UniProt Q92995: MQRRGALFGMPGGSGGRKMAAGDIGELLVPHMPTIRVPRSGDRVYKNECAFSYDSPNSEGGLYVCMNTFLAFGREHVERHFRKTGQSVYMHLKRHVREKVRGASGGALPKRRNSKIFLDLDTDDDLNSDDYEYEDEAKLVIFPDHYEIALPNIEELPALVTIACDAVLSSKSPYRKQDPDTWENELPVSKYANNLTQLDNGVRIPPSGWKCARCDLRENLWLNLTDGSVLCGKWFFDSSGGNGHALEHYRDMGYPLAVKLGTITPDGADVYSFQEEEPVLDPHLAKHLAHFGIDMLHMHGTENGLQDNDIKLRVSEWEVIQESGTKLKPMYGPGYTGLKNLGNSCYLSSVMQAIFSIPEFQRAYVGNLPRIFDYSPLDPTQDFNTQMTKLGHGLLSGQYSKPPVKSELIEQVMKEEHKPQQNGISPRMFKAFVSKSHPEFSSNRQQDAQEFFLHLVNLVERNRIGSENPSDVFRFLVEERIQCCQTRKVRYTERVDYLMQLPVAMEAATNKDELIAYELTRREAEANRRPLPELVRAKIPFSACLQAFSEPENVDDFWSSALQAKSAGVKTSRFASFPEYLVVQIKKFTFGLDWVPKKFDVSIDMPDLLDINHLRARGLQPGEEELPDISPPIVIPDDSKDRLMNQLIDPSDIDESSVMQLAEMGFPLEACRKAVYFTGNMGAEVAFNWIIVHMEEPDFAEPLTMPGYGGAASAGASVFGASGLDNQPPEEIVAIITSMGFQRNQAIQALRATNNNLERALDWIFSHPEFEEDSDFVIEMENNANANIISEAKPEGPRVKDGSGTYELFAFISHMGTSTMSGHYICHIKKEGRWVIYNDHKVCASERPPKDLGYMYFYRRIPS
# Some of the results follow.
# Compound: Cc1cc(ccc1-c1ccccc1)C(=O)N1CCCN(CC1)C(=O)CCl [compound 10]
# Experiment: probe-labelled cysteine peptide fold change vs DMSO (competition) (log2 fold change); higher = less target engagement (more negative = stronger competition)
# Settings: THP-1, incubation time: 4 h
# 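Further: competitive profiling in live THP-1 cells: cysteine peptides tagged with an iodoacetamide desthiobiotin (IA-DTB) probe, intensity after compound treatment relative to DMSO-treated cells.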
Target,probe-labelled cysteine peptide fold change (10 µM),probe-labelled cysteine peptide fold change (50 µM)
USP6_P35125_1185_SGTSCPSSK (UniProt P35125),-0.0811,-0.0649
UIMC1_Q96RL1_121_AIAESLNSCRPSDASATR (UniProt Q96RL1),-0.0681,-0.0697
USP40_Q9NVE5_832_MGSSLGLCLGK (UniProt Q9NVE5),0.122,-0.176
USP3_Q9Y6I4_385_SFTDLEELDETELYMCHK (UniProt Q9Y6I4),-0.114,-0.984
UQCRC1_P31930_154_AVELLGDIVQNCSLEDSQIEK (UniProt P31930),0.114,0.272
UNG_P13051_166_VVILGQDPYHGPNQAHGLCFSVQRPVPPPPSLENIYK (UniProt P13051),0.259,0.0594
UFL1_O94874_708_CVPQIIAFLNSK (UniProt O94874),-0.0536,0.189
UHRF2_Q96PU4_347_CHSCSCR (UniProt Q96PU4),0.165,0.27
USP8_P40818_50_TAEECR (UniProt P40818),0.284,0.395
USP19_O94966_1084_AGHFTLDQCLNLFTRPEVLAPEEAWYCPQCK (UniProt O94966),0.127,-0.0369
UGDH_O60701_64_EVVESCR (UniProt O60701),0.0863,0.0261
UHRF1_Q96T88_744_VEETFQCICCQELVFRPITTVCQHNVCK (UniProt Q96T88),0.106,0.203
UBTF_P17480_68_DFSGDMCK (UniProt P17480),0.117,-0.13
USP8_P40818_985+988_FYCSHCR (UniProt P40818),0.101,-0.313
USP47_Q96K76_856_AGGDSGNVDDDCER (UniProt Q96K76),-0.114,-0.0796
USP5_P45974_219_ENLWLNLTDGSILCGR (UniProt P45974),-0.0536,0.0911
UROS_P10746_241_ALAAQGLPVSCTAESPTPQALATGIRK (UniProt P10746),0.0095,-0.0321
USP4_Q13107_7_AEGGGCR (UniProt Q13107),0.717,0.861
USP8_P40818_214_RMQDYQDSCILHSLSVPEEAISPGVTASWIEAHLPDDSK (UniProt P40818),-0.055,-0.00185
UNC45A_Q9H3U1_650_LLAAGVVSAMVCMVK (UniProt Q9H3U1),-0.242,-0.176
UBTF_P17480_309_DKFDGRPTKPPPNSYSLYCAELMANMK (UniProt P17480),0.0169,-0.71

Target,probe-labelled cysteine peptide fold change (10 µM),probe-labelled cysteine peptide fold change (50 µM)
USP10_Q14694_456_VQRPCTSTPMIDSFVR (UniProt Q14694),-0.0395,-0.00663
USP19_O94966_1169_EEQLPSYDLYAVINHYGGMIGGHYTACAR (UniProt O94966),-0.00515,0.0872
USP34_Q70CQ2_2033_CQVADMK (UniProt Q70CQ2),0.111,-0.0995
UQCRC1_P31930_453_YIYDQCPAVAGYGPIEQLPDYNR (UniProt P31930),-0.0717,0.167
UQCRH_P07919_53_LELCDER (UniProt P07919),-0.429,-0.153
UCHL5_Q9Y5K5_9_MTGNAGEWCLMESDPGVFTELIK (UniProt Q9Y5K5),-0.0942,-0.182
USP15_Q9Y4E8_139_LCENGNMNNVVTR (UniProt Q9Y4E8),0.00708,-0.0543
USP24_Q9UPU5_995_QLCSPVDNIQIFTNDSLLTVNK (UniProt Q9UPU5),0.165,0.107
UBR7_Q8N806_82_QALYACSTCTPEGEEPAGICLACSYECHGSHK (UniProt Q8N806),0.15,-0.825
UHRF1BP1_Q6BDS2_384_HCEAMETR (UniProt Q6BDS2),-0.146,-0.0746
UROS_P10746_73_AVEAAELCLEQNNK (UniProt P10746),0.112,0.196
UFL1_O94874_641_SIEDFISCLDSAAEACDIMVK (UniProt O94874),0.245,0.00277
USP47_Q96K76_314_CLECGYEGWR (UniProt Q96K76),0.156,-0.0797
UPF1_Q92900_657_SILIDESTQATEPECMVPVVLGAK (UniProt Q92900),-0.0914,-0.0908
UMPS_P11172_174_LHSVCTLSK (UniProt P11172),0.07,-0.0952
USP34_Q70CQ2_1768_HLADCIR (UniProt Q70CQ2),0.196,0.0687
USP48_Q86UV5_145_DYEPQTICEHLQYLFALLQNSNRR (UniProt Q86UV5),0.119,0.166
UHRF1BP1_Q6BDS2_336_LDLHICDDSQSREPGVSANR (UniProt Q6BDS2),-0.0091,0.182
UHRF1_Q96T88_98_ERDSELSDTDSGCCLGQSESDK (UniProt Q96T88),0.0114,-0.448
USP15_Q9Y4E8_634_ISTETEETEGSLHCCK (UniProt Q9Y4E8),-0.145,-0.0655
UPF2_Q9HAU5_226_ISDVNCAVHLCSLFHQR (UniProt Q9HAU5),0.072,0.108

Target,probe-labelled cysteine peptide fold change (10 µM),probe-labelled cysteine peptide fold change (50 µM)
USP3_Q9Y6I4_98_CDDFVVNDTK (UniProt Q9Y6I4),-0.0308,-0.0909
UIMC1_Q96RL1_691_SFVSISEATDCLVDFKK (UniProt Q96RL1),-0.218,-0.239
USP19_O94966_1138_FCIGQK (UniProt O94966),-0.0378,-0.0473
UHRF1_Q96T88_302_SGPSCK (UniProt Q96T88),0.0872,-0.00697
UHRF1_Q96T88_316_VCACHLCGGR (UniProt Q96T88),-0.0214,-0.319
UHRF1BP1_Q6BDS2_494_KPSTLLSCSR (UniProt Q6BDS2),0.0804,0.0109
USP39_Q53GS9_105_HCPYLDTINR (UniProt Q53GS9),-0.189,-0.101
USP7_Q93009_925_DLLEECK (UniProt Q93009),0.13,0.3
USP7_Q93009_799_VDVIFCDK (UniProt Q93009),0.0293,0.0935
UQCRC1_P31930_410_NALVSHLDGTTPVCEDIGR (UniProt P31930),-0.112,0.0865
USP3_Q9Y6I4_362_NQENGPVCSLR (UniProt Q9Y6I4),0.12,-0.247
USP34_Q70CQ2_1380_CEELHLHAENLSR (UniProt Q70CQ2),-0.386,-0.282
USP7_Q93009_300_SFGWETLDSFMQHDVQELCR (UniProt Q93009),0.0196,-0.00405
USP19_O94966_1042_ELECAEDPGSAGEAAR (UniProt O94966),0.085,0.4
USP10_Q14694_94_TPSYSISSTLNPQAPEFILGCTASK (UniProt Q14694),-0.623,-0.194
USP22_Q9UPT9_171_KITSNCTIGLR (UniProt Q9UPT9),-0.315,-0.757
USP7_Q93009_799_DLYHRVDVIFCDK (UniProt Q93009),-0.0307,-0.336
UNC13D_Q70J99_992_DLHPLFDETFEFLVPAEPCRK (UniProt Q70J99),0.0124,-0.821
UHRF1_Q96T88_318+321_VCACHLCGGR (UniProt Q96T88),-0.0199,-0.236
USP14_P54578_203_GEQGQYLQQDANECWIQMMR (UniProt P54578),0.245,0.334
UPF1_Q92900_237_CFLSWLVK (UniProt Q92900),-0.00664,-0.0136

Target,probe-labelled cysteine peptide fold change (10 µM),probe-labelled cysteine peptide fold change (50 µM)
UMPS_P11172_278_ELLQLADALGPSICMLK (UniProt P11172),0.284,0.223
UCHL3_P15374_95_QTISNACGTIGLIHAIANNK (UniProt P15374),-0.157,-1.45
UNG_P13051_141_HYTVYPPPHQVFTWTQMCDIK (UniProt P13051),-0.00721,0.124
UCHL5_Q9Y5K5_88+100_QVINNACATQAIVSVLLNCTHQDVHLGETLSEFK (UniProt Q9Y5K5),0.213,0.0364
USP13_Q92995_231_ENLWLNLTDGSVLCGK (UniProt Q92995),0.0774,0.113
UBTF_P17480_309_FDGRPTKPPPNSYSLYCAELMANMK (UniProt P17480),-0.0751,-0.0504
USP8_P40818_962_CTLQDCLR (UniProt P40818),-0.0442,-0.135
USP24_Q9UPU5_1556_TAECETSEADNILLAGHLR (UniProt Q9UPU5),-0.139,-0.0485
UBR7_Q8N806_374_VQQVELICEYNDLK (UniProt Q8N806),0.0344,-0.293
UHRF1BP1L_A0JNW5_1235_HYLCNRPVGSDQK (UniProt A0JNW5),-0.0376,-0.282
UFD1_Q92890_25_CFSVSMLAGPNDRSDVEK (UniProt Q92890),0.194,-0.192
USP34_Q70CQ2_3118_SNIRPPRPELNMCLLPTMVETSK (UniProt Q70CQ2),0.146,-0.174
UNK_Q9C0B0_696_ASAAGAECELAR (UniProt Q9C0B0),-0.172,-0.212
USP24_Q9UPU5_679_LVTGSLIACHR (UniProt Q9UPU5),-0.0317,0.0717
UPF1_Q92900_374_LMQGDEICLR (UniProt Q92900),0.0563,-0.0152
USP15_Q9Y4E8_633_ISTETEETEGSLHCCK (UniProt Q9Y4E8),-0.0182,-0.248
UQCC2_Q9BRT2_53_EGENTQVAEPEACDQMYESLAR (UniProt Q9BRT2),-0.281,0.526
USO1_O60763_678_CQNEQLQTAVTQQVSQIQQHK (UniProt O60763),-0.0859,-0.0137

# A run of entries taken from the entries so far, as a working copy:
Target,probe-labelled cysteine peptide fold change (10 µM),probe-labelled cysteine peptide fold change (50 µM)
UCHL5_Q9Y5K5_88+100_QVINNACATQAIVSVLLNCTHQDVHLGETLSEFK (UniProt Q9Y5K5),0.213,0.0364
USP13_Q92995_231_ENLWLNLTDGSVLCGK (UniProt Q92995),0.0774,0.113
UBTF_P17480_309_FDGRPTKPPPNSYSLYCAELMANMK (UniProt P17480),-0.0751,-0.0504
USP8_P40818_962_CTLQDCLR (UniProt P40818),-0.0442,-0.135
USP24_Q9UPU5_1556_TAECETSEADNILLAGHLR (UniProt Q9UPU5),-0.139,-0.0485
UBR7_Q8N806_374_VQQVELICEYNDLK (UniProt Q8N806),0.0344,-0.293
